Assay results: article PMC11349379
No constants are given. Whether binding was seen depends on the method and setting. In cells and extracts the contact can be indirect. A result given as binding can be weak or reduced; the word gives no strength.

How the values were obtained:
[1] = molecular target: T1, IFT74 (C. reinhardtii (endogenous in dhc1b-3 cilia)) (UniProt Q6RCE1); assay: cross-linking; in situ cross-linking mass spectrometry: dhc1b-3 cells after 10 h at 34°C, deciliated, 1 mM DSSO for 45 minutes at room temperature, quenched with Tris, cilia isolated; 3% FDR at the residue pair level
T1 sequence: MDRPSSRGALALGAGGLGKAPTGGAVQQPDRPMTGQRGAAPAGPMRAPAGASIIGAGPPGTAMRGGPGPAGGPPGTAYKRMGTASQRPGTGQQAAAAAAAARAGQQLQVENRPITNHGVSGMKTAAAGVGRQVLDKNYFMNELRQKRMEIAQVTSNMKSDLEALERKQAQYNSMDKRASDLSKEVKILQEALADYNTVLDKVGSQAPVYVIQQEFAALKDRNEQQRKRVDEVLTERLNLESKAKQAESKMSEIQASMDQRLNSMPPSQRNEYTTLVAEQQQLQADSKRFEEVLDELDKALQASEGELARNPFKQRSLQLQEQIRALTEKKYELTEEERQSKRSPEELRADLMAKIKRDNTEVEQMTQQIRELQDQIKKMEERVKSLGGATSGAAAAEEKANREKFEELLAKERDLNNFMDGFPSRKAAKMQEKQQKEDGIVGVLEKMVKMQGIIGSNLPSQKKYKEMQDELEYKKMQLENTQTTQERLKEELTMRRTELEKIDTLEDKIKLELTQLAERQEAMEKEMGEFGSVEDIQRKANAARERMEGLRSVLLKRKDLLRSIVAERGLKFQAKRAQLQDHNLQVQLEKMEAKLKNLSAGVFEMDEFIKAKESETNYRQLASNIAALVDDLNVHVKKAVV

[2] = molecular target: T2, IFT139 (C. reinhardtii (endogenous in dhc1b-3 cilia)) (UniProt A9XPA6); assay: as above
T2 sequence: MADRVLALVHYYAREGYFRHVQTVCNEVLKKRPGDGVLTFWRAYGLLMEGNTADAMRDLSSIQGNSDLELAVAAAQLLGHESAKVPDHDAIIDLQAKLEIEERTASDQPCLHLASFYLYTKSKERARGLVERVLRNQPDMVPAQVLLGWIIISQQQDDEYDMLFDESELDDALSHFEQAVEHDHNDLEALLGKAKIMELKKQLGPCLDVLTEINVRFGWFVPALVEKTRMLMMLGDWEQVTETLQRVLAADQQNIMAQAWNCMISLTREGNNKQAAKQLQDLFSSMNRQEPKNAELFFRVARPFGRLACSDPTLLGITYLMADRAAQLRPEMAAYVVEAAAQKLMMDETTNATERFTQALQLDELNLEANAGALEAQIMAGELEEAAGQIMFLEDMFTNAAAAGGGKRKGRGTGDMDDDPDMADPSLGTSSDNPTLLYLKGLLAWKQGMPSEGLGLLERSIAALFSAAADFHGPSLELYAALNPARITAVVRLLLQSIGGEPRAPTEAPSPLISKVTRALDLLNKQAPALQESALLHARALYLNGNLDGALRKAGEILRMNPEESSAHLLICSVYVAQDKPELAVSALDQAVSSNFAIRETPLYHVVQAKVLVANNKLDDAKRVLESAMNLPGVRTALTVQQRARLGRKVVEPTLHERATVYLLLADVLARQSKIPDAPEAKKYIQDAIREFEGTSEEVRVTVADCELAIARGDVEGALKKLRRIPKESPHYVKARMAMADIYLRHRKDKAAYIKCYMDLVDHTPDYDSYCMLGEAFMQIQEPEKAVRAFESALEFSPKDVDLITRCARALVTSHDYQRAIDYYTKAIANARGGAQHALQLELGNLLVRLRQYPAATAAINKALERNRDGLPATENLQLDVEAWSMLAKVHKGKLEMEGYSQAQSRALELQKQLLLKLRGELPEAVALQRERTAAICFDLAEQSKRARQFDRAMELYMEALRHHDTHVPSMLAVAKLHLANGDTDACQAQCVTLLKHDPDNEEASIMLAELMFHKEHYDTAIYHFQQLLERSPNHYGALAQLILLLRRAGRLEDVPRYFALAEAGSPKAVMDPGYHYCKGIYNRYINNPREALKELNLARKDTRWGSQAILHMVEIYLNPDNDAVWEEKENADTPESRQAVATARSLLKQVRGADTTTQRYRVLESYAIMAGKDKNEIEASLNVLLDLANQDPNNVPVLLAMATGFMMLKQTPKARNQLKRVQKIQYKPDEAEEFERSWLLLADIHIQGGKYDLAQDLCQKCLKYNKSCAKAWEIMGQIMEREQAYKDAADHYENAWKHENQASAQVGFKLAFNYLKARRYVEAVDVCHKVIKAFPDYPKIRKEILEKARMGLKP

| binding [1] | binding [2] | Substance |
| --- | --- | --- |
| binds |  | FAP11 |
|  | binds | IFT38 |
